Test results reported in the supplement of paper PMC10032668.
This is one part of the list. Only hits are listed; about a third recur on repeated control peptides.

By UniProt entry, the sequences of proteins in these tests, tags left out.
TFG, Q92734, UniProt Q92734, whole entry: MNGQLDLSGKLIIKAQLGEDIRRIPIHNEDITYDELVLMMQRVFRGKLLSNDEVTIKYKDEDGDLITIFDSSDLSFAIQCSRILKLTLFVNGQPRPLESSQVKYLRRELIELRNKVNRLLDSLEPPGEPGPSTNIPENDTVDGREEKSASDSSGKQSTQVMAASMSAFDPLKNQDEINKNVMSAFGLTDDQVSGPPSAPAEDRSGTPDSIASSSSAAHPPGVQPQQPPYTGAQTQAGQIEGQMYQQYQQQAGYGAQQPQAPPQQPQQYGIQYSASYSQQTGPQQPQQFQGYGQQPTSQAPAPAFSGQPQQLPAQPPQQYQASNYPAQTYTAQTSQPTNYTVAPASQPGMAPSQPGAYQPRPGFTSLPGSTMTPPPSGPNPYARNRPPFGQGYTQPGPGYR
EIF3A, Q14152, UniProt Q14152, whole entry: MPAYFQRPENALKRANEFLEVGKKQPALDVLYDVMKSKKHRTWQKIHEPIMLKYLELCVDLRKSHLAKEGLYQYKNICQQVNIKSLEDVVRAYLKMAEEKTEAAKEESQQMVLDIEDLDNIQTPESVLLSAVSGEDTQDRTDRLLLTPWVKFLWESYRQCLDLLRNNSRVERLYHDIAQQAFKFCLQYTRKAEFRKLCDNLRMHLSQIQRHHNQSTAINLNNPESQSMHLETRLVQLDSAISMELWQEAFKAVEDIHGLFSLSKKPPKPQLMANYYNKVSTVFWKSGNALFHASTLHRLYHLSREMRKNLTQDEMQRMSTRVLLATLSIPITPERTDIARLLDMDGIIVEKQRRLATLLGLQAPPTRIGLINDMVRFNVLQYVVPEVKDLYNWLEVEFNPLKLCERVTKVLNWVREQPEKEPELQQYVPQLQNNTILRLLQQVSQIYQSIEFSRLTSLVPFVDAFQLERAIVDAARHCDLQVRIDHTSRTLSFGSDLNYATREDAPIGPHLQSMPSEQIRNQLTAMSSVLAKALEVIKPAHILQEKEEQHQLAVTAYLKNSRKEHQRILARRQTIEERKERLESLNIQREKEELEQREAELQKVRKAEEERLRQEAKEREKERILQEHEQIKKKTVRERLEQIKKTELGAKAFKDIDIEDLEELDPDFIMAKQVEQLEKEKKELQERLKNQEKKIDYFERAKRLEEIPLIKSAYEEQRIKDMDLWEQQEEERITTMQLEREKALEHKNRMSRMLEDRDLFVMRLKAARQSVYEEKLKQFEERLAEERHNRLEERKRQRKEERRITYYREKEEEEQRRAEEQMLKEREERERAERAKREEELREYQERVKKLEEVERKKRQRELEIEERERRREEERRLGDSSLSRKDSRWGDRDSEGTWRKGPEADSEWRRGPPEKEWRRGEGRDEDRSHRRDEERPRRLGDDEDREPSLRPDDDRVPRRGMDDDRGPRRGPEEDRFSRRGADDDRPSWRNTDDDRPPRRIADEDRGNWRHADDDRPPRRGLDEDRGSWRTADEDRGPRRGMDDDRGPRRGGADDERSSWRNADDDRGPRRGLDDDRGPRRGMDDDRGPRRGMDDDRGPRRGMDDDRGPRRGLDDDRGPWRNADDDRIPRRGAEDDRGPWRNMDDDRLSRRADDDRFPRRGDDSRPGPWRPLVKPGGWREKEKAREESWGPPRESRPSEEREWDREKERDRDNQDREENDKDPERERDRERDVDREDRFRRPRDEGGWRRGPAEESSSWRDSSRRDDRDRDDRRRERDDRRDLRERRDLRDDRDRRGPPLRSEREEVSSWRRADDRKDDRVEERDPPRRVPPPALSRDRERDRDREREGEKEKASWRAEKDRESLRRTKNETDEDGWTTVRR
PSMD14, O00487, UniProt O00487, whole entry: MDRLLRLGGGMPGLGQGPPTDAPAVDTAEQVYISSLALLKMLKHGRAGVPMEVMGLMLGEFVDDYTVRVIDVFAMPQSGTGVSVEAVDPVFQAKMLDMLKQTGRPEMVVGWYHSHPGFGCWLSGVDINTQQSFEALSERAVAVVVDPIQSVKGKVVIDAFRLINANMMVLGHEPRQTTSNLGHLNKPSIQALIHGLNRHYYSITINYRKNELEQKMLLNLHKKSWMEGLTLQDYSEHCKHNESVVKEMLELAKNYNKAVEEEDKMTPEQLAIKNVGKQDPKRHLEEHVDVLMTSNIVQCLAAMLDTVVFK
PPP2R5D, Q14738, UniProt Q14738, whole entry: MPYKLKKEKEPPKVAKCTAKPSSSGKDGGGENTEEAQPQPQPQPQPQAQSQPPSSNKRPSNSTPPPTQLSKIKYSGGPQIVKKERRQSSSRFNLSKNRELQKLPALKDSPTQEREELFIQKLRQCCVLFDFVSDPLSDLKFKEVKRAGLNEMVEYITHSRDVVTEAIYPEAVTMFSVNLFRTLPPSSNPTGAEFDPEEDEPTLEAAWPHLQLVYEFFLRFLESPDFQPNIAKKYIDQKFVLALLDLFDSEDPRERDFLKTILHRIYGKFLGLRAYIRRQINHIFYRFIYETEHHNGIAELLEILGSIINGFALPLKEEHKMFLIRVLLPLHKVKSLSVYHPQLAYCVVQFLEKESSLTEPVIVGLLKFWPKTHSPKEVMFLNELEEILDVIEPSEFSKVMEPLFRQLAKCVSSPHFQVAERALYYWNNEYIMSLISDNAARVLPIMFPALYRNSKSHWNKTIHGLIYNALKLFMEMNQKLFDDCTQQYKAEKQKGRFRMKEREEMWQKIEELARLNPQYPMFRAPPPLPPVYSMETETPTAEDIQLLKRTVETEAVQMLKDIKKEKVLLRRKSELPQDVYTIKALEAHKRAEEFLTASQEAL
SNRPE, P62304, UniProt P62304, whole entry: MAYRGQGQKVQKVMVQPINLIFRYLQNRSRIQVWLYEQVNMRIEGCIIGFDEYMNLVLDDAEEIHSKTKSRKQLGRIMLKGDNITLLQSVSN

Assays:
Experiment in all cases: PRISMA enrichment of interactor (LFQ) in peptide spot vs all other peptide spots (log2 fold change); higher = stronger / more specific binding of the interactor to the peptide
ACAT1, P24752 = target: ACAT1, P24752
Protocol: (§1)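 PRISMA: 15-aa overlapping tiles (offset 8 aa) of 60 microproteins, plus SOS1/GLUT1 control peptides, were spot-synthesized on cellulose membranes in triplicate. Membranes were incubated with benzonase-treated HEK293T lysate, and bound proteins were identified by LC-MS/MS with LFQ. Enrichment is the log2 fold change of each protein in one spot versus all other spots. Only interactors passing the significance cutoff are listed.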

FAM98B, Q52LJ0 = target: FAM98B, Q52LJ0
Protocol: as §1

MAIP1, Q8WWC4 = target: MAIP1, Q8WWC4
Protocol: as §1

PHF8, Q9UPP1 = target: PHF8, Q9UPP1
Protocol: as §1

PSMD13, Q9UNM6 = target: PSMD13, Q9UNM6
Protocol: as §1

SYNE2, Q8WXH0 = target: SYNE2, Q8WXH0
Protocol: as §1

TFG, Q92734 = target: TFG, Q92734
Protocol: as §1

ACLY, P53396 = target: ACLY, P53396
Protocol: as §1

AIMP2, Q13155 = target: AIMP2, Q13155
Protocol: as §1

ALDH1L1, O75891 = target: ALDH1L1, O75891
Protocol: as §1

DNAJA1, P31689 = target: DNAJA1, P31689
Protocol: as §1

EIF3A, Q14152 = target: EIF3A, Q14152
Protocol: as §1

MCM10, Q7L590 = target: MCM10, Q7L590
Protocol: as §1

NCBP3, Q53F19 = target: NCBP3, Q53F19
Protocol: as §1

PDS5A, Q29RF7 = target: PDS5A, Q29RF7
Protocol: as §1

PJA2, O43164 = target: PJA2, O43164
Protocol: as §1

SRPK2, P78362 = target: SRPK2, P78362
Protocol: as §1

TAB2, Q9NYJ8 = target: TAB2, Q9NYJ8
Protocol: as §1

TMEM263, Q8WUH6 = target: TMEM263, Q8WUH6
Protocol: as §1

TRA2B, P62995 = target: TRA2B, P62995
Protocol: as §1

ACAT2, Q9BWD1 = target: ACAT2, Q9BWD1
Protocol: as §1

ARL6IP5, O75915 = target: ARL6IP5, O75915
Protocol: as §1

C19orf53, Q9UNZ5 = target: C19orf53, Q9UNZ5
Protocol: as §1

CHCHD6, Q9BRQ6 = target: CHCHD6, Q9BRQ6
Protocol: as §1

CTBP1, Q13363 = target: CTBP1, Q13363
Protocol: as §1

CTR9, Q6PD62 = target: CTR9, Q6PD62
Protocol: as §1

ECI2, O75521 = target: ECI2, O75521
Protocol: as §1

EED, O75530 = target: EED, O75530
Protocol: as §1

EIF4H, Q15056 = target: EIF4H, Q15056
Protocol: as §1

LRRC40, Q9H9A6 = target: LRRC40, Q9H9A6
Protocol: as §1

MRPL40, Q9NQ50 = target: MRPL40, Q9NQ50
Protocol: as §1

POLRMT, O00411 = target: POLRMT, O00411
Protocol: as §1

PRRC2C, Q9Y520 = target: PRRC2C, Q9Y520
Protocol: as §1

PSMD14, O00487 = target: PSMD14, O00487
Protocol: as §1

RNF2, Q99496 = target: RNF2, Q99496
Protocol: as §1

ACIN1, Q9UKV3 = target: ACIN1, Q9UKV3
Protocol: as §1

APRT, P07741 = target: APRT, P07741
Protocol: as §1

CIAO1, O76071 = target: CIAO1, O76071
Protocol: as §1

[1] = substrate: CNP, P09543
Protocol: as §1

COPS3, Q9UNS2 = target: COPS3, Q9UNS2
Protocol: as §1

MDC1, Q14676 = target: MDC1, Q14676
Protocol: as §1

MED23, Q9ULK4 = target: MED23, Q9ULK4
Protocol: as §1

MKI67, P46013 = target: MKI67, P46013
Protocol: as §1

MRFAP1, Q9Y605 = target: MRFAP1, Q9Y605
Protocol: as §1

MRPS6, P82932 = target: MRPS6, P82932
Protocol: as §1

ORC5, O43913 = target: ORC5, O43913
Protocol: as §1

PPP2R5D, Q14738 = target: PPP2R5D, Q14738
Protocol: as §1

SNRPE, P62304 = target: SNRPE, P62304
Protocol: as §1

TWNK, Q96RR1 = target: TWNK, Q96RR1
Protocol: as §1

UTP4, Q969X6 = target: UTP4, Q969X6
Protocol: as §1

Binder: MRPVGLVLRWKKRAV [RP1-206D15.6]
- PRISMA enrichment of interactor (log2) (ACAT1, P24752): 8.48
- PRISMA enrichment of interactor (log2) (FAM98B, Q52LJ0): 7.11
- PRISMA enrichment of interactor (log2) (MAIP1, Q8WWC4): 4.57
- PRISMA enrichment of interactor (log2) (PHF8, Q9UPP1): 5.28
- PRISMA enrichment of interactor (log2) (PSMD13, Q9UNM6): 6.24
- PRISMA enrichment of interactor (log2) (SYNE2, Q8WXH0): 4.86
- PRISMA enrichment of interactor (log2) (TFG, Q92734): 4.12

Binder: TPAPCGTRLRSLEAV [SLCO5A1]
- PRISMA enrichment of interactor (log2) (ACAT1, P24752): 6.92
- PRISMA enrichment of interactor (log2) (ACLY, P53396): 4.79
- PRISMA enrichment of interactor (log2) (AIMP2, Q13155): 4.87
- PRISMA enrichment of interactor (log2) (ALDH1L1, O75891): 7.43
- PRISMA enrichment of interactor (log2) (DNAJA1, P31689): 4.93
- PRISMA enrichment of interactor (log2) (EIF3A, Q14152): 4.84
- PRISMA enrichment of interactor (log2) (MCM10, Q7L590): 4.97
- PRISMA enrichment of interactor (log2) (NCBP3, Q53F19): 4.08
- PRISMA enrichment of interactor (log2) (PDS5A, Q29RF7): 5.28
- PRISMA enrichment of interactor (log2) (PJA2, O43164): 4.05
- PRISMA enrichment of interactor (log2) (SRPK2, P78362): 4
- PRISMA enrichment of interactor (log2) (TAB2, Q9NYJ8): 4.51
- PRISMA enrichment of interactor (log2) (TMEM263, Q8WUH6): 5.05
- PRISMA enrichment of interactor (log2) (TRA2B, P62995): 5.69

Binder: LLMKASHKTRLIQGV [RP3-332B22.1]
- PRISMA enrichment of interactor (log2) (ACAT2, Q9BWD1): 4.14
- PRISMA enrichment of interactor (log2) (ARL6IP5, O75915): 7.25
- PRISMA enrichment of interactor (log2) (C19orf53, Q9UNZ5): 6.34
- PRISMA enrichment of interactor (log2) (CHCHD6, Q9BRQ6): 6.34
- PRISMA enrichment of interactor (log2) (CTBP1, Q13363): 3.79
- PRISMA enrichment of interactor (log2) (CTR9, Q6PD62): 7.65
- PRISMA enrichment of interactor (log2) (ECI2, O75521): 5.03
- PRISMA enrichment of interactor (log2) (EED, O75530): 6.88
- PRISMA enrichment of interactor (log2) (EIF4H, Q15056): 4.56
- PRISMA enrichment of interactor (log2) (LRRC40, Q9H9A6): 6.26
- PRISMA enrichment of interactor (log2) (MRPL40, Q9NQ50): 6.55
- PRISMA enrichment of interactor (log2) (POLRMT, O00411): 7.8
- PRISMA enrichment of interactor (log2) (PRRC2C, Q9Y520): 6.89
- PRISMA enrichment of interactor (log2) (PSMD14, O00487): 4.26
- PRISMA enrichment of interactor (log2) (RNF2, Q99496): 3.85

Binder: EFRGTAENVTGLNTI [LINC01560]
- PRISMA enrichment of interactor (log2) (ACIN1, Q9UKV3): 5.74
- PRISMA enrichment of interactor (log2) (APRT, P07741): 4.43
- PRISMA enrichment of interactor (log2) (CIAO1, O76071): 4.49
- PRISMA enrichment of interactor (log2) [1]: 6.8
- PRISMA enrichment of interactor (log2) (COPS3, Q9UNS2): 4.76
- PRISMA enrichment of interactor (log2) (MDC1, Q14676): 5.44
- PRISMA enrichment of interactor (log2) (MED23, Q9ULK4): 4.88
- PRISMA enrichment of interactor (log2) (MKI67, P46013): 4.87
- PRISMA enrichment of interactor (log2) (MRFAP1, Q9Y605): 3.98
- PRISMA enrichment of interactor (log2) (MRPS6, P82932): 5.48
- PRISMA enrichment of interactor (log2) (ORC5, O43913): 4.09
- PRISMA enrichment of interactor (log2) (PPP2R5D, Q14738): 5.14
- PRISMA enrichment of interactor (log2) (SNRPE, P62304): 8.41
- PRISMA enrichment of interactor (log2) (TWNK, Q96RR1): 6.2
- PRISMA enrichment of interactor (log2) (UTP4, Q969X6): 5.1
